These are yes or no findings as the source states them, for the method shown. Binding seen in cells or lysates may run through a third protein. Some binding calls cover weakened binding; strength is not graded here.
Experiments:
[1] = target: sequestosome-1 (SQSTM1/p62) (UniProt Q13501); assay: co-IP; Co-IP of FOXP3, FXR1 with p62; cells, antibodies and bait not stated
[2] = target: forkhead box P3 (FOXP3), endogenous in HEK293T cells (human (endogenous in HEK293T)) (UniProt Q9BZS1); assay: co-IP; endogenous proteins in 293T cells; precipitated with anti-FOXP3 or anti-FXR1 antibodies, IgG as the control
[3] = target: HA-FOXP3 wild type (UniProt Q9BZS1); assay: co-IP; exogenous HA-FOXP3 and Flag-FXR1 wild-type plasmids transfected into 293T cells; empty vectors as control

Sequences of proteins named here, by UniProt entry; tags and fusion partners are left off. Residues count along the entry.
UniProt Q9BZS1, residues 1-417: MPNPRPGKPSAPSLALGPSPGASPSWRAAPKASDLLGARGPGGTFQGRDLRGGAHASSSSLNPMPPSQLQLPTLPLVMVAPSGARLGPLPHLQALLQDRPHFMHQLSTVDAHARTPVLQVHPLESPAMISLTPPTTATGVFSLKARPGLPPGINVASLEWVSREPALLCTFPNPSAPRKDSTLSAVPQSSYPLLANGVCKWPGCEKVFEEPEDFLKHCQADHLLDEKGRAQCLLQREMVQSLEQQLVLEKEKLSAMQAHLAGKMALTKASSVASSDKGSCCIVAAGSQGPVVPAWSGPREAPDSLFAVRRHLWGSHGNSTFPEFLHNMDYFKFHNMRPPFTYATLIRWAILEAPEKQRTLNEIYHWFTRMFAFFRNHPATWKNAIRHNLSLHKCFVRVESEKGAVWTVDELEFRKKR

Substance	binding [1]	binding [2]	binding [3]
FMR1 autosomal homolog 1 (FXR1), endogenous in HEK293T cells (from UniProt P51114 1-621)	binds	binds	–
Flag-FXR1 wild type (from UniProt P51114 1-621)	–	–	binds

From article PMC12041782
